Record: PubChem BioAssay AID652272 (Drosophila RNAi Screening Center, 2013)

- Test: 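Genome-wide knock-down search for components of Hedgehog signalling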 (primary screen)
- System: Drosophila clone 8 (Cl8) cells
- Knock-down reagent: long dsRNA against Drosophila genes
- Read-out: 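Plate reader light from a firefly reporter under a ptc promoter fragment that responds to Hedgehog, with Renilla light as transfection reference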
- Scale: firefly Hh reporter signal: higher = more ptc reporter light; Renilla reference signal: higher = more Renilla control light
- Hit rule: 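Called a hit if the two-replicate mean z-score lies below -2 or above +3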
- Meaning of the calls: active = hit: reporter lowered or raised; inactive = not a hit
The screen tested about 21,000 reagents; below is an unselected part of those that have a named target and a result. In the full data, 503 (2.4%) got an active call. 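Raw plate light values, not normalised; calls rest on replicate z-scores that were not deposited; hits include reporter decreases as well as increases.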 The numbers tell different reagents against one gene apart. Names joined by + are all predicted targets of the reagent. Not given: the amount of reagent, the time to read-out.

| target gene | dsRNA no. | firefly Hh reporter signal, replicate 1 | firefly Hh reporter signal, replicate 2 | firefly Hh reporter signal, replicate 3 | Renilla reference signal, replicate 1 | Renilla reference signal, replicate 2 | Outcome |
| --- | --- | --- | --- | --- | --- | --- | --- |
| Blos2 | 1 | 75794 | 67744 | 56659 | 4748 | 4332 | inactive |
| ITP | 1 | 71395 | 45129 | – | 1658 | 4041 | inactive |
| fiz | 1 | 1.76e5 | 1.20e5 | – | 4117 | 3367 | inactive |
| peo | 1 | 84130 | 56032 | – | 3920 | 2395 | inactive |
| sordd2 + sordd1 | 1 | 68231 | 1.08e5 | – | 1648 | 2248 | inactive |
| CdGAPr | 1 | 51853 | 67465 | – | 960 | 6057 | inactive |
| Qsox3 | 1 | 8.24e5 | 1.53e5 | – | 48066 | 11227 | inactive |
| CG12912 | 1 | 13835 | 4504 | – | 592 | 828 | active |
| CG4653 | 1 | 1.62e5 | 8.65e5 | 1.48e5 | 3449 | 47907 | inactive |
| CG17260 | 1 | 88359 | 95323 | – | 3900 | 4104 | inactive |
| Oatp30B | 1 | 74001 | 1.22e5 | – | 3332 | 4820 | inactive |
| CG3176 + CR18166 + CG32817 | 1 | 4.57e5 | 1.84e5 | – | 21795 | 3867 | inactive |
| CG3176 + CR18166 + CG32817 | 2 | 4.35e5 | 1.73e5 | – | 22979 | 3753 | inactive |
| CG3176 + CR18166 + CG32817 | 3 | 90960 | 74273 | – | 2178 | 2432 | inactive |
| CG10822 | 1 | 91748 | 45900 | – | 2378 | 3104 | inactive |
| eIF4E5 | 1 | 62336 | 56245 | – | 3020 | 3616 | active |
| Fbw5 | 1 | 1.14e5 | 53400 | – | 3056 | 4919 | inactive |
| Tim17a2 | 1 | 1.12e5 | 1.89e5 | – | 2920 | 5256 | inactive |
| primo-2 + primo-1 | 1 | 1.13e5 | 1.34e5 | – | 2807 | 3672 | inactive |
| frm | 1 | 2.11e5 | 1.33e5 | – | 7898 | 4576 | inactive |
| Caf1-180 | 1 | 75284 | 1.07e5 | – | 1664 | 2268 | inactive |
| Xe7 | 1 | 1.01e5 | 1.29e5 | – | 3749 | 3184 | inactive |
| dgt4 | 1 | 51623 | 1.40e5 | – | 1769 | 5840 | inactive |
| myd | 1 | 50080 | 49224 | – | 2873 | 2327 | inactive |
| myd | 2 | 5.59e5 | 68096 | – | 29469 | 1674 | inactive |
| CR14033 | 1 | 94371 | 68442 | – | 4613 | 2935 | inactive |
| Prx3 | 1 | 1.61e5 | 1.37e5 | – | 5979 | 4162 | inactive |
| CG9933 | 1 | 87415 | 46053 | – | 2950 | 4481 | inactive |
| Cyp6d2 | 1 | 1.15e5 | 4.85e5 | 66529 | 2828 | 2920 | inactive |
| CG30031 + deltaTry + gammaTry | 1 | 1.16e5 | 96121 | – | 2556 | 5574 | inactive |
| CrzR | 1 | 63333 | 50983 | 54989 | 4993 | 3841 | inactive |
| CrzR | 2 | 61121 | 52538 | 45552 | 4310 | 3080 | inactive |
| Myo28B1 | 1 | 2.10e5 | 80800 | – | 4902 | 7226 | inactive |
| CecB | 1 | 1.23e5 | 1.20e5 | – | 2562 | 3785 | inactive |
| Edc3 | 1 | 1.28e5 | 63299 | – | 5420 | 2978 | inactive |
| pyd | 1 | 6.88e5 | 4.09e5 | 1.26e5 | 5857 | 8872 | inactive |
| pyd | 2 | 1.63e5 | 1.07e5 | – | 5595 | 3691 | inactive |
| pyd | 3 | 75751 | 1.14e5 | – | 2912 | 3264 | inactive |
| pyd | 4 | 1.19e5 | 1.74e5 | – | 4873 | 4829 | inactive |
| pyd | 5 | 1.39e5 | 94150 | – | 5340 | 3608 | inactive |
| pyd | 6 | 85845 | 1.43e5 | – | 3101 | 3921 | inactive |
| pyd | 7 | 1.07e5 | 1.91e5 | – | 4304 | 5188 | inactive |
| CG31797 | 1 | 73911 | 48388 | – | 1986 | 4820 | inactive |
| CG31797 | 2 | 77298 | 52691 | – | 2183 | 4852 | inactive |
| CG14853 | 1 | 1.31e5 | 7.90e5 | 1.46e5 | 4165 | 5815 | inactive |
| CG42404 | 1 | 80003 | 86595 | – | 3021 | 2410 | inactive |
| CG43092 | 1 | 44891 | 1.68e5 | – | 9371 | 3451 | inactive |
| Cyp6t3 | 1 | 80762 | 34484 | – | 2279 | 3273 | inactive |
| CG13775 | 1 | 1.18e5 | 50762 | – | 2998 | 3632 | inactive |
| CG8461 | 1 | 2.12e5 | 99730 | – | 8252 | 3634 | inactive |
| TBC1d7 | 1 | 5.00e5 | 86621 | – | 25723 | 2976 | inactive |
| Art8 | 1 | 1.23e5 | 60352 | – | 2829 | 5376 | inactive |
| CG9663 | 1 | 91553 | 59574 | – | 4472 | 2683 | inactive |
| GluRIIE | 1 | 54826 | 2.00e5 | – | 11590 | 4938 | inactive |
| CG1544 | 1 | 78008 | 94518 | – | 1376 | 3142 | inactive |
| GckIII | 1 | 64131 | 66914 | – | 1338 | 2016 | inactive |
| Ir52d | 1 | 99632 | 39289 | – | 2720 | 1457 | inactive |
| Vsx2 | 1 | 5.31e5 | 3.54e5 | 1.37e5 | 4224 | 23818 | inactive |
| Vsx2 | 2 | 29947 | 64864 | – | 1671 | 3872 | inactive |
| Vsx2 | 3 | 78387 | 4.35e5 | 2.35e5 | 3179 | 4179 | inactive |
| Vsx2 | 4 | 2.23e5 | 1.28e5 | 3.47e5 | 2578 | 4464 | active |
| Sld5 | 1 | 4.22e5 | 71690 | – | 26029 | 2368 | inactive |
| CG13531 | 1 | 96163 | 64428 | – | 2312 | 5604 | inactive |
| eIF3m | 1 | 54845 | 37909 | – | 2012 | 1680 | inactive |
| 140up | 1 | 1.17e5 | 99495 | – | 4226 | 3520 | inactive |
| alphaTry | 1 | 1.04e5 | 75544 | – | 2609 | 5346 | inactive |
| mRpS17 | 1 | 89570 | 59384 | – | 2566 | 5792 | inactive |
| Cpr78Cb | 1 | 1.05e5 | 1.12e5 | – | 3859 | 3152 | inactive |
| CG42326 | 1 | 1.23e5 | 66484 | – | 2854 | 5984 | inactive |
| CG42326 | 2 | 70345 | 41800 | – | 1943 | 3701 | inactive |
| CG14947 | 1 | 79181 | 49542 | – | 2032 | 4795 | inactive |
| ND-51 | 1 | 74643 | 52155 | – | 2555 | 1914 | inactive |
| Cap-G | 1 | 1.33e5 | 73200 | – | 3306 | 5274 | inactive |
| Cap-G | 2 | 77188 | 46747 | – | 2088 | 3693 | inactive |
